The list shows a part of the results. Most entries show no effect beyond the scatter of the controls.

By UniProt entry, the sequences of proteins in these tests, tags left out. Where a name states a change or a piece, a line headed by the entry shows the natural chain unless it says otherwise.
UniProt Q8N4Q0: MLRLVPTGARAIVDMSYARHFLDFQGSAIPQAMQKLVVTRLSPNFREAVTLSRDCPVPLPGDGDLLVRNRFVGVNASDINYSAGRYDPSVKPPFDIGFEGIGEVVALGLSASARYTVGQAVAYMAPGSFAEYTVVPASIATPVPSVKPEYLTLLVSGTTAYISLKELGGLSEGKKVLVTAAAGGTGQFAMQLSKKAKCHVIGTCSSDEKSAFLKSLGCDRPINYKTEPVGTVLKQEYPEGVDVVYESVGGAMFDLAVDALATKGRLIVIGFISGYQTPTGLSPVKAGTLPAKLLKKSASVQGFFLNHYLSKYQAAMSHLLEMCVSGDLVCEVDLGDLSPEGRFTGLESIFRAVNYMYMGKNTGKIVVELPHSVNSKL
UniProt Q8N488: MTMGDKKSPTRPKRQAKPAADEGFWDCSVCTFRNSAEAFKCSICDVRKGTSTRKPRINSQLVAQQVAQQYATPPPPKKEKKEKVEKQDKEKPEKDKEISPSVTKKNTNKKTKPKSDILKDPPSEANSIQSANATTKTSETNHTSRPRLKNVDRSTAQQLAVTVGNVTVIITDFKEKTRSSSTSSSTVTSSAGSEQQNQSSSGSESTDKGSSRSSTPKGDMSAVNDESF
UniProt Q8NB46: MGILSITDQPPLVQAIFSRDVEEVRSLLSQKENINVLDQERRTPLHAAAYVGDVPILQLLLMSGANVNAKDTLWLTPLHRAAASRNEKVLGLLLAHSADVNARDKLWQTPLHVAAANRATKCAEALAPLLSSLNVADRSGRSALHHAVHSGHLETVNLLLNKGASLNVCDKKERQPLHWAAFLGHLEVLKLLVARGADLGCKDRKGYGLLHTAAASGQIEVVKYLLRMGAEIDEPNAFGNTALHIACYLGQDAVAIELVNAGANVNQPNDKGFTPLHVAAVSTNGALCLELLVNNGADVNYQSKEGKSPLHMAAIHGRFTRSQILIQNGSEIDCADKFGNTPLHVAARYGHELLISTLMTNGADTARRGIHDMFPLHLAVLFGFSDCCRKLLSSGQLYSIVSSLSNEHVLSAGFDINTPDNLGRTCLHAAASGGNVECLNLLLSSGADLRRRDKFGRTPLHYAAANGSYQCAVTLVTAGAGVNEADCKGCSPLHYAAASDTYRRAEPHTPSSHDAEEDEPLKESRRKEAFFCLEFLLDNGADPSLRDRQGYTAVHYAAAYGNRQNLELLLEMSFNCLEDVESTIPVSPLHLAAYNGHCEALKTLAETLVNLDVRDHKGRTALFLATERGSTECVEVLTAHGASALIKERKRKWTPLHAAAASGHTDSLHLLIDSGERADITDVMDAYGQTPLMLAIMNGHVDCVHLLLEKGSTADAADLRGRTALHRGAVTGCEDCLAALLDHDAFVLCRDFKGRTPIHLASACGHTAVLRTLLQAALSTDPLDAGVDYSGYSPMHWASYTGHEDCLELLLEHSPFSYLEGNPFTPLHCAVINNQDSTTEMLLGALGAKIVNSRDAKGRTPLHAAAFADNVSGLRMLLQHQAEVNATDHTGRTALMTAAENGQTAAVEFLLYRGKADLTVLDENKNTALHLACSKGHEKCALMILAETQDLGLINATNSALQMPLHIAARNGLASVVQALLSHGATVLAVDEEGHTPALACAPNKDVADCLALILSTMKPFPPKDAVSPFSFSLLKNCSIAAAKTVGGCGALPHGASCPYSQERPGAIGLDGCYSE
UniProt Q8NEV8: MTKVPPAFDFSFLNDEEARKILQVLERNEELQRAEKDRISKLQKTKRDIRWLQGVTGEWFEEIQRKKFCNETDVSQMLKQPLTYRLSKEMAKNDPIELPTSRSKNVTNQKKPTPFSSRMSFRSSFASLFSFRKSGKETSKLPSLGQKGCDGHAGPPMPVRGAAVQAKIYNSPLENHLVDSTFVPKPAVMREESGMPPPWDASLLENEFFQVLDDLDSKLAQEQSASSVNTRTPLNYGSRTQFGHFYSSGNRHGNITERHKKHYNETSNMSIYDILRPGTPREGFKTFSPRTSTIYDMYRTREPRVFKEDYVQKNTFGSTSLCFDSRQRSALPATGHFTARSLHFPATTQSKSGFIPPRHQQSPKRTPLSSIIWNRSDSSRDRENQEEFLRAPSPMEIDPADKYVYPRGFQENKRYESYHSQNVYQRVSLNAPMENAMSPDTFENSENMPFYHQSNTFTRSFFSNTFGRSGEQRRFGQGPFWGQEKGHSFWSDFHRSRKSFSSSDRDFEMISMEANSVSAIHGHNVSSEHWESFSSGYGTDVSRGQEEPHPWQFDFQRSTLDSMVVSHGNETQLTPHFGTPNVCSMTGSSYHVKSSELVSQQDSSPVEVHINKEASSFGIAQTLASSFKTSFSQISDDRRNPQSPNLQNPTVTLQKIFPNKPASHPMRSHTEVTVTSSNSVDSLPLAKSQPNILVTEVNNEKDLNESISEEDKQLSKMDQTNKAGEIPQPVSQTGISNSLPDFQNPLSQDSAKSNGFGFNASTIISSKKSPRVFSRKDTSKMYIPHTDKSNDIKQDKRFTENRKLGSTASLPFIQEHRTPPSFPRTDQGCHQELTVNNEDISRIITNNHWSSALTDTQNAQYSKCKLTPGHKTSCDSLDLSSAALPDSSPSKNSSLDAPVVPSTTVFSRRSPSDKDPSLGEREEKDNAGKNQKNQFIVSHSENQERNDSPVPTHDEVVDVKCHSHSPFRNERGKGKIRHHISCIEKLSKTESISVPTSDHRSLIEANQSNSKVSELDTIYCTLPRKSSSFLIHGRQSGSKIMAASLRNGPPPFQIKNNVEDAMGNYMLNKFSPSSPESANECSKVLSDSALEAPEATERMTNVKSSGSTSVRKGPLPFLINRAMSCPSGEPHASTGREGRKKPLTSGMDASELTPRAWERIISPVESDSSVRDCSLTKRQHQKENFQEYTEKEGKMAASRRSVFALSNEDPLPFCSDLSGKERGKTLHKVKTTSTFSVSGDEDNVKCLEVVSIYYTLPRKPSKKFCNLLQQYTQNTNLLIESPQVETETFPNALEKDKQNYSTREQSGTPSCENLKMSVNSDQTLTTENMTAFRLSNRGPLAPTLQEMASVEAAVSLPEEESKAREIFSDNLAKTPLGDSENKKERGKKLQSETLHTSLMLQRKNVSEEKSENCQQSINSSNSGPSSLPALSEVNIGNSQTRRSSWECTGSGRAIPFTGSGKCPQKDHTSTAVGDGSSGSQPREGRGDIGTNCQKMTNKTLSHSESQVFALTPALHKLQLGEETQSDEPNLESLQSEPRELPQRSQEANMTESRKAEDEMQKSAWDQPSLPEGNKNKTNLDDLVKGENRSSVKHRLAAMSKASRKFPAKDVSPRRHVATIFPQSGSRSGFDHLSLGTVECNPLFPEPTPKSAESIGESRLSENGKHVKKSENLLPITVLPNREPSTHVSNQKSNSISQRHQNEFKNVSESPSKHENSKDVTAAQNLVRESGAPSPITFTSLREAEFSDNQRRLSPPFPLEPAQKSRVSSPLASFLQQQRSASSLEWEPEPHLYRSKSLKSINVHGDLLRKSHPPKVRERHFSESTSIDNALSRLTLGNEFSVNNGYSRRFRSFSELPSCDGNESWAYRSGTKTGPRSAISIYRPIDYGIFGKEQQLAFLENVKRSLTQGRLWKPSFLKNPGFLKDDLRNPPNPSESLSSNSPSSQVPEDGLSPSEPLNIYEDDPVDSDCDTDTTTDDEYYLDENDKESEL
UniProt Q8NBF2: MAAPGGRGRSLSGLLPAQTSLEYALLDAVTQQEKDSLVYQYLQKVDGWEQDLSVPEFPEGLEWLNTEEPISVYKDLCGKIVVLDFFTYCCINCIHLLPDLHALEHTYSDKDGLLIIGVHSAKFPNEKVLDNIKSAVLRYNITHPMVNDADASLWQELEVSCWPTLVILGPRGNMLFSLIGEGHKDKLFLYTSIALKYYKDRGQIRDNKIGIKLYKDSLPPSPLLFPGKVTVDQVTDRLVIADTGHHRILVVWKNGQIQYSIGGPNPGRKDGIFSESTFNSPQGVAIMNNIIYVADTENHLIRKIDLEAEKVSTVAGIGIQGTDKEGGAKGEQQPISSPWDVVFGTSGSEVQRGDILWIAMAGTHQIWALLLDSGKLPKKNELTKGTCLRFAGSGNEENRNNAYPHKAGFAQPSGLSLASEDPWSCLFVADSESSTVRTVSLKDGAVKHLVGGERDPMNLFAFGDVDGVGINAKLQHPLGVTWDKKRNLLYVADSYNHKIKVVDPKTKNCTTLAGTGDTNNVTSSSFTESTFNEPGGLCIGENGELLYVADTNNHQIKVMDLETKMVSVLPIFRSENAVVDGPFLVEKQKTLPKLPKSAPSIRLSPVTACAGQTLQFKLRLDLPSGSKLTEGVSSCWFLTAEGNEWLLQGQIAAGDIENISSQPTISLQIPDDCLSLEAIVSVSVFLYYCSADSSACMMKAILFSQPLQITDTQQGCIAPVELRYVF
UniProt Q8NDL9: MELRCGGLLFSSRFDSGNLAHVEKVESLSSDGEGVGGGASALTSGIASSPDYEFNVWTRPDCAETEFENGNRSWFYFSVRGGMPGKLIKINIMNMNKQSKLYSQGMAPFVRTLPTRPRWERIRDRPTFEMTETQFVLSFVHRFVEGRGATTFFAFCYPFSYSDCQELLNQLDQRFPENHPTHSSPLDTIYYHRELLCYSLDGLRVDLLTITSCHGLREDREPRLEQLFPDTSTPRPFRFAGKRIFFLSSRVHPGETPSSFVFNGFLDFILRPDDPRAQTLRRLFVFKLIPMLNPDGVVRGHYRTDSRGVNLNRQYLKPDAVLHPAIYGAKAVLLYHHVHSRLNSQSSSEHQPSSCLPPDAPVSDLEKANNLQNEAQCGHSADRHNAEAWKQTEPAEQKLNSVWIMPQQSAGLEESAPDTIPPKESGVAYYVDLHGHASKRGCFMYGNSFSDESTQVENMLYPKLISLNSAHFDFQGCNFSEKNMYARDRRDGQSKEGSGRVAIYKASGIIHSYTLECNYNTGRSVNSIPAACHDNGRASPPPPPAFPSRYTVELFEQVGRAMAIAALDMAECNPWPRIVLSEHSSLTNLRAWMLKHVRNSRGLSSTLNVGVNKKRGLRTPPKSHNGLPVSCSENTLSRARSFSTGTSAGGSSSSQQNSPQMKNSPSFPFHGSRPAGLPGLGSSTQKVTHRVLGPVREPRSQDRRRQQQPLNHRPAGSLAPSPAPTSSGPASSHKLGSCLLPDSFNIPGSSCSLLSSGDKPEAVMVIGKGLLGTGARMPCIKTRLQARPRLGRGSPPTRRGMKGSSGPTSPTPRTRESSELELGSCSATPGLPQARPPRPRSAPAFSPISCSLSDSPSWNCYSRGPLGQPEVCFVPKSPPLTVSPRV
UniProt Q8N5P1: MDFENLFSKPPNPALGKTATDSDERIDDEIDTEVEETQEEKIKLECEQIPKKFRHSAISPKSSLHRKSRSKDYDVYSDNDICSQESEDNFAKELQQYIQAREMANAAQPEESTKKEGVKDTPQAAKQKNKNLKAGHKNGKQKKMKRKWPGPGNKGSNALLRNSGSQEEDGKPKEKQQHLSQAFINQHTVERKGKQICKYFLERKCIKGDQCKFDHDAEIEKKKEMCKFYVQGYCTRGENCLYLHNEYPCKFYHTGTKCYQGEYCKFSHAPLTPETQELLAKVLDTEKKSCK
UniProt Q8NEY8: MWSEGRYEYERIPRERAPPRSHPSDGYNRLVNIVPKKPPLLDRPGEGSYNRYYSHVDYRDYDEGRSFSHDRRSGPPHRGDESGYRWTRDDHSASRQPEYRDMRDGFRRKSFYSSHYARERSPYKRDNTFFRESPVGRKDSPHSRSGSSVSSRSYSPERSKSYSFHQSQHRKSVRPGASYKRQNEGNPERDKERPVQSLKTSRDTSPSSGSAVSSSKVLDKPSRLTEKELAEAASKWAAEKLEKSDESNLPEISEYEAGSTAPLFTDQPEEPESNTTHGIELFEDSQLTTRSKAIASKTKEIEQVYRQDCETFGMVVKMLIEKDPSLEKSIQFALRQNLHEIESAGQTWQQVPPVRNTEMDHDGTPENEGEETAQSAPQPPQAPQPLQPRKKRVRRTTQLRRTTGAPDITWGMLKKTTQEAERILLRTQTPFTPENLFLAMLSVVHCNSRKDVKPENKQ
UniProt Q8NBX0: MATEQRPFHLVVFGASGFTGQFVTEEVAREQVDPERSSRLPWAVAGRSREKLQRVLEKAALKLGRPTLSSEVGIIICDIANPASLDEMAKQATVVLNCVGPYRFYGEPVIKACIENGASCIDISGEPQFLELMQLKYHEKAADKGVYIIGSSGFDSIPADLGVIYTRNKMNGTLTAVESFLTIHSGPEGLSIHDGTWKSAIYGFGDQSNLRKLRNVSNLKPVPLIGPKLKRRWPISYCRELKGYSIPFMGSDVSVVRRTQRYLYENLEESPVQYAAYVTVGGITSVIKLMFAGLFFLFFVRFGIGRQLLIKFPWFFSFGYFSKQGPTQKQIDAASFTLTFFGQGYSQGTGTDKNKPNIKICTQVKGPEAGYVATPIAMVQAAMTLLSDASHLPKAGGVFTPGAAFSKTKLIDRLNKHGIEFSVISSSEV

Compound in this assay: CN[C@@H]1C[C@H]2O[C@@](C)([C@@H]1OC)n1c3ccccc3c3c4c(c5c6ccccc6n2c5c31)C(=O)NC4 [staurosporine]
Description: log2 fold change of tryptic peptide abundance, ligand vs vehicle (limited proteolysis) (log2 ratio); higher = more trypsin-susceptible (destabilized). The conditions noted are these: ligand concentration: 20 uM; sample: K562 cleared lysate; digestion: 4 min, 22 C (HT-PELSA RT4min, Orbitrap Astral).
With “NGDN (peptide sequence: FKPHPSNMMSK, peptide start residue: 130) (UniProt Q8NEJ9)”, the log2 fold change is 0.812. In the case of “GABPB2 (peptide sequence: VAEETVIKEEEEEKLPLTK, peptide start residue: 316) (UniProt Q8TAK5)”, the log2 fold change was -0.813.

“GADD45GIP1 (peptide sequence: AAALAAAVAQDPAASGAPSS, peptide start residue: 203) (UniProt Q8TAE8)”: the log2 fold change is -0.251. As for “SNIP1 (peptide sequence: SPHHSTVK, peptide start residue: 99) (UniProt Q8TAD8)”, the log2 fold change was 1.29. For the target “ZBTB2 (peptide sequence: LGRDPRPQTSR, peptide start residue: 155) (UniProt Q8N680)”, the log2 fold change is 0.406. In the case of “TRIM58 (peptide sequence: LDPATAHPSLLLTADLR, peptide start residue: 295) (UniProt Q8NG06)”, the log2 fold change turned out to be 0.578. For “RBM15B (peptide sequence: YGIIEEVVIK, peptide start residue: 360) (UniProt Q8NDT2)”, the log2 fold change stood at 0.633.

“UniProt Q8NHY2 (peptide sequence: KRPLLAPLCNGLINSYEDK, peptide start residue: 112)”: the log2 fold change is -0.336. Regarding “ZADH2 (peptide sequence: SASVQGFFLNHYLSK, peptide start residue: 297) (UniProt Q8N4Q0)”, the log2 fold change was determined as 0.433. As for “TXNDC5 (peptide sequence: QGLYELSASNFELHVAQGDHFIK, peptide start residue: 189) (UniProt Q8NBS9)”, the figure is 0.61; as for “UniProt Q8NHS0 (peptide sequence: IVENGQER, peptide start residue: 208)”, -0.0836; as for “RYBP (peptide sequence: CSICDVR, peptide start residue: 41) (UniProt Q8N488)”, 0.147.

Consider “ANKRD52 (peptide sequence: GSTECVEVLTAHGASALIK, peptide start residue: 629) (UniProt Q8NB46)”, for which the log2 fold change worked out at 0.503. For “UniProt Q8NEV8 (peptide sequence: TESISVPTSDHR, peptide start residue: 989)”, the log2 fold change amounted to 0.414. As for “UniProt Q8NDC4 (peptide sequence: FNGVGVFIR, peptide start residue: 71)”, the figure is -0.0636. As for “UniProt Q8NI60 (peptide sequence: AAILGDTIMVAK, peptide start residue: 2)”, the figure is 0.425; as for “ZMIZ2 (peptide sequence: GYVQQGVYSR, peptide start residue: 102) (UniProt Q8NF64)”, 0.106. As for “UniProt Q8NBU5 (peptide sequence: GVLLYGPPGCGK, peptide start residue: 128)”, the figure is -0.153. As for “MCFD2 (peptide sequence: DDDKNNDGYIDYAEFAK, peptide start residue: 127) (UniProt Q8NI22)”, the log2 fold change is -0.0979. Turning to “SUMF2 (peptide sequence: EATVKPFAIDIFPVTNKDFR, peptide start residue: 56) (UniProt Q8NBJ7)”, the log2 fold change is -0.262.

As for “DDX55 (peptide sequence: CPLQEMKPQR, peptide start residue: 389) (UniProt Q8NHQ9)”, the log2 fold change was -0.38. As for “NHLRC2 (peptide sequence: MVSVLPIFR, peptide start residue: 565) (UniProt Q8NBF2)”, the figure is 0.193; as for “AGBL5 (peptide sequence: SHNGLPVSCSENTLSR, peptide start residue: 623) (UniProt Q8NDL9)”, -0.127; as for “RP9 (peptide sequence: SSRPGREDVGAAGAR, peptide start residue: 2) (UniProt Q8TA86)”, -0.755. Consider “ANKRD44 (peptide sequence: HSADVNAR, peptide start residue: 96) (UniProt Q8N8A2)”, for which the log2 fold change stood at 0.599. Consider “UniProt Q8NBI2 (peptide sequence: QPLLHDGE, peptide start residue: 235)”, for which the log2 fold change was -0.382. “GRPEL2 (peptide sequence: VEVAVESQR, peptide start residue: 215) (UniProt Q8TAA5)”: the log2 fold change is -0.102. In the case of “RNF10 (peptide sequence: VALEQQLAEEK, peptide start residue: 350) (UniProt Q8N5U6)”, the log2 fold change is 0.477. As for “UniProt Q8NF67 (peptide sequence: MLEEEILNLK, peptide start residue: 197)”, the log2 fold change was -0.37. Regarding “ZC3H8 (peptide sequence: EMANAAQPEESTKK, peptide start residue: 102) (UniProt Q8N5P1)”, the log2 fold change is -0.188. “SERBP1 (peptide sequence: EAGGGGVGGPGAK, peptide start residue: 40) (UniProt Q8NC51)”: the log2 fold change was -0.13.

In the case of “UniProt Q8N8E2 (peptide sequence: ALSAESEVEEPARGPGEAR, peptide start residue: 94)”, the log2 fold change was -0.0151. As for “WDR36 (peptide sequence: VVNLGVLAQK, peptide start residue: 815) (UniProt Q8NI36)”, the figure is 0.203.

On to “PPHLN1 (peptide sequence: YYSHVDYR, peptide start residue: 52) (UniProt Q8NEY8)”, for which the log2 fold change is 0.721. For “UniProt Q8N6I1 (peptide sequence: HYLENYPIAPGR, peptide start residue: 159)”, the log2 fold change was determined as 0.269. Consider “ARFGAP1 (peptide sequence: KSPSSDSWTCADTSTERR, peptide start residue: 342) (UniProt Q8N6T3)”, for which the log2 fold change was -0.344. As for “SCCPDH (peptide sequence: RWPISYCRELK, peptide start residue: 232) (UniProt Q8NBX0)”, the figure is 0.166.
